Results taken from PubChem BioAssay AID1458 (National Center for Advancing Translational Sciences (NCATS), 2008).
Out of some 210,000 compounds screened, about 5,900 (2.8%) were called active. Inconclusive results (about 5%) are left out. Calls follow the shape of the dose curve; as a rule, active = well fitted activation curve with a large enough effect; inconclusive = small, poorly fitted or top-dose-only effect; inactive = no such curve, though single readings can be large or run the other way. This is a selection; strong and weak results do not stand in their true shares. Entries without a call were filed so in the source.

Experiment: qHTS Assay for Enhancers of SMN2 Splice Variant Expression; also: nearly all actives have a fitted effect of over 55% in size; as to activity change, positive = activation: % of control where 0% means no effect
Conditions: HEK293 SMN2-luciferase splicing reporter, luminescence, 30-36 h; activity change, positive = activation: at 46.1 µM (top of the series) unless noted
Source text: NIH Chemical Genomics Center [NCGC] NIH Molecular Libraries Probe Production centers Network [MLPCN] MLPCN Grant: R03 MH084179-01 Assay Submitter (PI): Elliot Androphy NCGC Assay Overview: Spinal muscular atrophy (SMA) is caused by insufficient levels of the survival motor neuron protein SMN. The SMN locus on chromosome 5q13 contains two inverted copies of SMN called SMN1 and SMN2 which are 99% identical at the amino acid level. SMN1 is a fully functional protein and SMN2 skips exon 7 90% of the time. Skipping of exon 7 produces non-functional protein product. 10% of the SMN2 protein includes exon 7 and is fully functional. In the SMA disease state, mutations in the SMN1 locus are the cause of the disease state. Because only 10% of SMN2 is of the fully functional form, it is not sufficient to overcome the deficiency produced by the loss of the SMN1 product. A therapy that either increase the amount of SMN2 product made or to increase the inclusion of exon 7 has been proposed for the treatment of SMA. We have designed an assay to identify small molecules that can increase the amount of functional SMN2 product by appending a luciferase reporter gene after the native SMN2 gene, such that inclusion of exon 7 in the expressed product places the luciferase sequence in frame, thus generating functional luciferase enzyme.
NCGC Assay Protocol Summary: This screen utilizes a luciferase reporter gene assay, combining the promoter and splicing based cassettes in tandem with the major portion of the native SMN2 cDNA, and then transfected into HEK293 cells. Compounds that increase luciferase signal presumably enhance expression of the functional SMN2 splice variant. Passaging media contained DMEM w/ glutamax (+phenol red) 10% FCS, 1x pen/strep, 200 ug/ml hygro, 1x sodium pyruvate. Assay media contained DMEM w/ glutamax (-phenol red) 10% FCS, 1x pen strep, 1x pyruvate Sequence, Parameter, Value, Description (1) Cells, […], 2000 cells/well, 1536 TC treated White solid bottom plate (2) Time, 10-12 hours, 37C 5% CO2 (3) Compound, 23 nl, MLSMR Library (4) Control Compound, 23 nL, Sodium butyrate st 4.5mM (final) conc (5) Time, 30-36 hours, 37C 5% CO2 (6) Reagent, 3 ul, One Glo (TM) from Promega (7) Time, 5-15 minutes, Room temp (8) Detector, Viewlux: luminescent read, 60 second integration, high speed 2x binning Keywords: Spinal muscular atrophy, SMA, SMN2, high throughput screening, MLSMR, MLPCN, NIH Roadmap, qHTS and NCGC
Potency is read from the fitted curve at half-maximal effect.

| SMILES | activity change, positive = activation | Potency |
| --- | --- | --- |
| COc1cccc(NC(=O)c2cc3c(-c4ccc(Cl)cc4)nn(C)c3s2)c1 | 28.9% | – |
| Cc1cc(O)ccc1N/C=C/c1onc(C)c1[N+](=O)[O-] | – | active: 20 µM |
| O=C(CN1C(=O)c2ccccc2S1(=O)=O)NCCSC1CCCCC1 | 31.6% | – |
| Cc1ccc(C(C)C)c(OCCn2c(=O)oc3ccccc32)c1 | -37.4% | – |
| CCCC(=O)CN1C(=O)C2(OCCO2)c2ccccc21 | 46.7% | – |
| Cc1nnc2sc(SCC(=O)Nc3ccc(Br)cc3)nn2c1=O | 49.6% | – |
| Cc1ccc(-c2nc(C=Nc3ccccc3)c(O)o2)cc1 | 1.27% | – |
| Cc1ccccc1-n1nc(CO)c(C(=O)NCC(c2ccccc2)c2ccccc2)n1 | inactive: -69.1% | – |
| CCOC(=O)C(CC)n1nc(C)c2c(C)n(-c3ccc(C)cc3)nc2c1=O (centres undefined) | inactive: -49.4% | – |
| CC1CCC(NC(=O)CC(C)(C)Cc2nc3ccccc3c(=O)[nH]2)CC1 (centres undefined) | -53.7% | – |
| COc1ccc(-c2cc(NCCc3ccncc3)n3ncnc3n2)cc1 | 34.1% | – |
| CCCCC[n+]1ccn(C2=C([O-])c3ccccc3C(=O)/C2=N\S(=O)(=O)c2ccccc2)c1 | -34.3% | – |
| Cn1c(CCNC(=O)c2ccco2)nc2cc(NS(=O)(=O)c3ccccc3)ccc21 | -37.6% | – |
| CCc1ccc(C(=O)CCC2CCCCC2=O)cc1 (centres undefined) | inactive: -4.22% | – |
| COc1cccc(CCc2ccccc2OCC[C@@H]2C[C@@H](O)CN2C)c1 | inactive: -37.6% | – |
| COc1ccc(-c2cc(C#N)nc(N3CCN(c4ccccc4)CC3)n2)cc1 | inactive: -45.3% | – |
| CC(=O)OC[C@H]1O[C@@H](n2ncc(=O)[nH]c2=O)[C@H](OC(C)=O)[C@@H]1OC(C)=O | – | active: 10 µM |
| CCC1(CC)NC(=O)N(CC(=O)Nc2sc3c(c2C(N)=O)CCC3)C1=O | 40.3% | – |
| O=C(CSc1nc(-c2ccccc2)ns1)N1CCOCC1 | 61% | – |
| O=C(Nc1ccccc1F)Nc1ccccc1F | – | active: 12.6 µM |
| CCn1c(=O)cc(OCC(=O)NC2CCCCC2)c2ccccc21 | 46.3% | – |
| O=C(NCC1CCCO1)C1CC(c2ccccc2Cl)=NO1 (centres undefined) | 46% | – |
| CC(=O)Nc1ccc(NC(=O)CSCc2cnn(-c3ccccc3)c2-n2cccc2)cc1 | -33.3% | – |
| CCCn1c(-c2ccc(OC)cc2)nc2c(=O)n(C)c(=O)[nH]c21 | 33.6% | – |
| COc1ccc(Nc2nc(-c3ccc4c(c3)NC(=O)CO4)cs2)cc1 | inactive: -63.9% | – |
| CCOC(=O)COc1ccc(S(=O)(=O)NCCC2=CCCCC2)cc1 | 21.7% | – |
| O=C1c2cccc3c([N+](=O)[O-])ccc(c23)C(=O)N1c1ccccn1 | -68% | – |

Ten structures out of the list, ordered by SMILES length, smallest number first:

| SMILES | activity change, positive = activation | Potency |
| --- | --- | --- |
| O=C(CSc1nc(-c2ccccc2)ns1)N1CCOCC1 | 61% | – |
| Cc1ccc(C(C)C)c(OCCn2c(=O)oc3ccccc32)c1 | -37.4% | – |
| Cc1cc(O)ccc1N/C=C/c1onc(C)c1[N+](=O)[O-] | – | active: 20 µM |
| CCOC(=O)COc1ccc(S(=O)(=O)NCCC2=CCCCC2)cc1 | 21.7% | – |
| CCCn1c(-c2ccc(OC)cc2)nc2c(=O)n(C)c(=O)[nH]c21 | 33.6% | – |
| CCC1(CC)NC(=O)N(CC(=O)Nc2sc3c(c2C(N)=O)CCC3)C1=O | 40.3% | – |
| O=C1c2cccc3c([N+](=O)[O-])ccc(c23)C(=O)N1c1ccccn1 | -68% | – |
| Cn1c(CCNC(=O)c2ccco2)nc2cc(NS(=O)(=O)c3ccccc3)ccc21 | -37.6% | – |
| CC(=O)Nc1ccc(NC(=O)CSCc2cnn(-c3ccccc3)c2-n2cccc2)cc1 | -33.3% | – |
| CC(=O)OC[C@H]1O[C@@H](n2ncc(=O)[nH]c2=O)[C@H](OC(C)=O)[C@@H]1OC(C)=O | – | active: 10 µM |

Following part.

| SMILES | activity change, positive = activation | Potency |
| --- | --- | --- |
| Cc1ccc(CSC(Nc2ccc(F)cc2)=C(C#N)C#N)cc1 | -80% | – |
| COc1ccc(/C=C/C(=O)N2CCCc3ccccc32)cc1 | -34.7% | – |
| O=C1CC(c2ccccc2)CC(O)=C1C=Nc1ccccc1Cl (centres undefined) | -17.8% | – |
| O=C(Nc1cccnc1)Nc1ccc(F)c(Cl)c1 | 32.2% | – |
| Nc1ccc(C(=O)Nc2nc3ccccc3s2)cc1 | – | active: 1.58 µM |
| O=C(CCN1C(=O)C2C3C=CC(C3)C2C1=O)N1CCN(c2ccc(F)cc2)CC1 (centres undefined) | 30.5% | – |
| Cc1ccccc1CSc1ncc(Cl)c(C(=O)NCc2ccccc2)n1 | inactive: -31.5% | – |
| Cn1c(NNC(=O)C(c2ccccc2)c2ccccc2)cc(=O)n(C)c1=O | inactive: -45.7% | – |
| Clc1ccc(Cn2c(CN3CCCC3)nc3ccccc32)cc1 | -47.9% | – |
| Cc1ccc(-c2nc(-c3ccccn3)no2)cc1 | -81.2% | – |
| Cc1ccc(NC(=O)Cn2c(O)c(N=NC(=O)c3cc4ccccc4cc3O)c3ccccc32)cc1 | inactive: -43.7% | – |
| COC(=O)C1=C(C(=O)OC)[C@@H]2N(C)c3ccc(OC)cc3[C@@]23C[C@@H](C(=O)OC)N(C(=O)C2CCC2)C3=N1 | 30.4% [at 9.22 µM] | – |
| NC(=O)C1(N2CCCCC2)CCN(c2nc(-c3ccc(Br)cc3)cs2)CC1 | inactive: -42.4% | – |
| CCNS(=O)(=O)c1c(C)cc(N2CCCC2=O)cc1C | 27.7% | – |
| COc1cccc(Nc2ncnc3ccccc23)c1 | – | active: 14.1 µM |
| CCSc1nnc2nc(C)cc(C)n12 | 30.4% | – |
| O=S(=O)(c1cccs1)n1cccn1 | 15.4% | – |
| Cc1cccc(-c2noc(CN(C(=O)c3ccc(Br)o3)C(C)C)n2)c1 | -47.3% | – |
| COc1ccccc1N1CCN(C(=O)C2CCC(Cn3c(=S)[nH]c4ccccc4c3=O)CC2)CC1 (centres undefined) | inactive: -46.5% | – |
| CCCCC(=O)OCC(=O)Nc1ccc(C)c(F)c1 | inactive: -12.5% | – |
| CC(/C=C/c1ccccc1F)=N\NC(=O)c1ccccc1 | – | active: 15.8 µM |
| C=CCNc1nnc(Cl)c2ccccc12 | inactive: -32.1% | – |
| CC(C)OC(=O)C(C)Oc1ccc(C(=O)NCCc2ccccc2)cc1 (centres undefined) | 36.9% | – |
| CC1CCCC(C)N1c1nnc(NC(=O)c2cc(-c3ccc(Br)cc3)on2)s1 (centres undefined) | inactive: -49.2% | – |
| Cc1ccc(CCNS(=O)(=O)c2cnc[nH]2)cc1 | 29.7% | – |
| CCOC(=O)CN(C(=O)CNC(=O)c1ccco1)C(C(=O)NC1CCCCC1)c1cccs1 (centres undefined) | 37.9% | – |
| CCCc1cc(=O)[nH]c(-n2[nH]c3c(c2=O)CCCC3)n1 | -78.2% | – |
